Test results reported in paper PMC7948964.

Amino acid sequences for entries named in this document (tags omitted). A change or cut given only in a name is not applied to a line headed by its entry.
UniProt O95714: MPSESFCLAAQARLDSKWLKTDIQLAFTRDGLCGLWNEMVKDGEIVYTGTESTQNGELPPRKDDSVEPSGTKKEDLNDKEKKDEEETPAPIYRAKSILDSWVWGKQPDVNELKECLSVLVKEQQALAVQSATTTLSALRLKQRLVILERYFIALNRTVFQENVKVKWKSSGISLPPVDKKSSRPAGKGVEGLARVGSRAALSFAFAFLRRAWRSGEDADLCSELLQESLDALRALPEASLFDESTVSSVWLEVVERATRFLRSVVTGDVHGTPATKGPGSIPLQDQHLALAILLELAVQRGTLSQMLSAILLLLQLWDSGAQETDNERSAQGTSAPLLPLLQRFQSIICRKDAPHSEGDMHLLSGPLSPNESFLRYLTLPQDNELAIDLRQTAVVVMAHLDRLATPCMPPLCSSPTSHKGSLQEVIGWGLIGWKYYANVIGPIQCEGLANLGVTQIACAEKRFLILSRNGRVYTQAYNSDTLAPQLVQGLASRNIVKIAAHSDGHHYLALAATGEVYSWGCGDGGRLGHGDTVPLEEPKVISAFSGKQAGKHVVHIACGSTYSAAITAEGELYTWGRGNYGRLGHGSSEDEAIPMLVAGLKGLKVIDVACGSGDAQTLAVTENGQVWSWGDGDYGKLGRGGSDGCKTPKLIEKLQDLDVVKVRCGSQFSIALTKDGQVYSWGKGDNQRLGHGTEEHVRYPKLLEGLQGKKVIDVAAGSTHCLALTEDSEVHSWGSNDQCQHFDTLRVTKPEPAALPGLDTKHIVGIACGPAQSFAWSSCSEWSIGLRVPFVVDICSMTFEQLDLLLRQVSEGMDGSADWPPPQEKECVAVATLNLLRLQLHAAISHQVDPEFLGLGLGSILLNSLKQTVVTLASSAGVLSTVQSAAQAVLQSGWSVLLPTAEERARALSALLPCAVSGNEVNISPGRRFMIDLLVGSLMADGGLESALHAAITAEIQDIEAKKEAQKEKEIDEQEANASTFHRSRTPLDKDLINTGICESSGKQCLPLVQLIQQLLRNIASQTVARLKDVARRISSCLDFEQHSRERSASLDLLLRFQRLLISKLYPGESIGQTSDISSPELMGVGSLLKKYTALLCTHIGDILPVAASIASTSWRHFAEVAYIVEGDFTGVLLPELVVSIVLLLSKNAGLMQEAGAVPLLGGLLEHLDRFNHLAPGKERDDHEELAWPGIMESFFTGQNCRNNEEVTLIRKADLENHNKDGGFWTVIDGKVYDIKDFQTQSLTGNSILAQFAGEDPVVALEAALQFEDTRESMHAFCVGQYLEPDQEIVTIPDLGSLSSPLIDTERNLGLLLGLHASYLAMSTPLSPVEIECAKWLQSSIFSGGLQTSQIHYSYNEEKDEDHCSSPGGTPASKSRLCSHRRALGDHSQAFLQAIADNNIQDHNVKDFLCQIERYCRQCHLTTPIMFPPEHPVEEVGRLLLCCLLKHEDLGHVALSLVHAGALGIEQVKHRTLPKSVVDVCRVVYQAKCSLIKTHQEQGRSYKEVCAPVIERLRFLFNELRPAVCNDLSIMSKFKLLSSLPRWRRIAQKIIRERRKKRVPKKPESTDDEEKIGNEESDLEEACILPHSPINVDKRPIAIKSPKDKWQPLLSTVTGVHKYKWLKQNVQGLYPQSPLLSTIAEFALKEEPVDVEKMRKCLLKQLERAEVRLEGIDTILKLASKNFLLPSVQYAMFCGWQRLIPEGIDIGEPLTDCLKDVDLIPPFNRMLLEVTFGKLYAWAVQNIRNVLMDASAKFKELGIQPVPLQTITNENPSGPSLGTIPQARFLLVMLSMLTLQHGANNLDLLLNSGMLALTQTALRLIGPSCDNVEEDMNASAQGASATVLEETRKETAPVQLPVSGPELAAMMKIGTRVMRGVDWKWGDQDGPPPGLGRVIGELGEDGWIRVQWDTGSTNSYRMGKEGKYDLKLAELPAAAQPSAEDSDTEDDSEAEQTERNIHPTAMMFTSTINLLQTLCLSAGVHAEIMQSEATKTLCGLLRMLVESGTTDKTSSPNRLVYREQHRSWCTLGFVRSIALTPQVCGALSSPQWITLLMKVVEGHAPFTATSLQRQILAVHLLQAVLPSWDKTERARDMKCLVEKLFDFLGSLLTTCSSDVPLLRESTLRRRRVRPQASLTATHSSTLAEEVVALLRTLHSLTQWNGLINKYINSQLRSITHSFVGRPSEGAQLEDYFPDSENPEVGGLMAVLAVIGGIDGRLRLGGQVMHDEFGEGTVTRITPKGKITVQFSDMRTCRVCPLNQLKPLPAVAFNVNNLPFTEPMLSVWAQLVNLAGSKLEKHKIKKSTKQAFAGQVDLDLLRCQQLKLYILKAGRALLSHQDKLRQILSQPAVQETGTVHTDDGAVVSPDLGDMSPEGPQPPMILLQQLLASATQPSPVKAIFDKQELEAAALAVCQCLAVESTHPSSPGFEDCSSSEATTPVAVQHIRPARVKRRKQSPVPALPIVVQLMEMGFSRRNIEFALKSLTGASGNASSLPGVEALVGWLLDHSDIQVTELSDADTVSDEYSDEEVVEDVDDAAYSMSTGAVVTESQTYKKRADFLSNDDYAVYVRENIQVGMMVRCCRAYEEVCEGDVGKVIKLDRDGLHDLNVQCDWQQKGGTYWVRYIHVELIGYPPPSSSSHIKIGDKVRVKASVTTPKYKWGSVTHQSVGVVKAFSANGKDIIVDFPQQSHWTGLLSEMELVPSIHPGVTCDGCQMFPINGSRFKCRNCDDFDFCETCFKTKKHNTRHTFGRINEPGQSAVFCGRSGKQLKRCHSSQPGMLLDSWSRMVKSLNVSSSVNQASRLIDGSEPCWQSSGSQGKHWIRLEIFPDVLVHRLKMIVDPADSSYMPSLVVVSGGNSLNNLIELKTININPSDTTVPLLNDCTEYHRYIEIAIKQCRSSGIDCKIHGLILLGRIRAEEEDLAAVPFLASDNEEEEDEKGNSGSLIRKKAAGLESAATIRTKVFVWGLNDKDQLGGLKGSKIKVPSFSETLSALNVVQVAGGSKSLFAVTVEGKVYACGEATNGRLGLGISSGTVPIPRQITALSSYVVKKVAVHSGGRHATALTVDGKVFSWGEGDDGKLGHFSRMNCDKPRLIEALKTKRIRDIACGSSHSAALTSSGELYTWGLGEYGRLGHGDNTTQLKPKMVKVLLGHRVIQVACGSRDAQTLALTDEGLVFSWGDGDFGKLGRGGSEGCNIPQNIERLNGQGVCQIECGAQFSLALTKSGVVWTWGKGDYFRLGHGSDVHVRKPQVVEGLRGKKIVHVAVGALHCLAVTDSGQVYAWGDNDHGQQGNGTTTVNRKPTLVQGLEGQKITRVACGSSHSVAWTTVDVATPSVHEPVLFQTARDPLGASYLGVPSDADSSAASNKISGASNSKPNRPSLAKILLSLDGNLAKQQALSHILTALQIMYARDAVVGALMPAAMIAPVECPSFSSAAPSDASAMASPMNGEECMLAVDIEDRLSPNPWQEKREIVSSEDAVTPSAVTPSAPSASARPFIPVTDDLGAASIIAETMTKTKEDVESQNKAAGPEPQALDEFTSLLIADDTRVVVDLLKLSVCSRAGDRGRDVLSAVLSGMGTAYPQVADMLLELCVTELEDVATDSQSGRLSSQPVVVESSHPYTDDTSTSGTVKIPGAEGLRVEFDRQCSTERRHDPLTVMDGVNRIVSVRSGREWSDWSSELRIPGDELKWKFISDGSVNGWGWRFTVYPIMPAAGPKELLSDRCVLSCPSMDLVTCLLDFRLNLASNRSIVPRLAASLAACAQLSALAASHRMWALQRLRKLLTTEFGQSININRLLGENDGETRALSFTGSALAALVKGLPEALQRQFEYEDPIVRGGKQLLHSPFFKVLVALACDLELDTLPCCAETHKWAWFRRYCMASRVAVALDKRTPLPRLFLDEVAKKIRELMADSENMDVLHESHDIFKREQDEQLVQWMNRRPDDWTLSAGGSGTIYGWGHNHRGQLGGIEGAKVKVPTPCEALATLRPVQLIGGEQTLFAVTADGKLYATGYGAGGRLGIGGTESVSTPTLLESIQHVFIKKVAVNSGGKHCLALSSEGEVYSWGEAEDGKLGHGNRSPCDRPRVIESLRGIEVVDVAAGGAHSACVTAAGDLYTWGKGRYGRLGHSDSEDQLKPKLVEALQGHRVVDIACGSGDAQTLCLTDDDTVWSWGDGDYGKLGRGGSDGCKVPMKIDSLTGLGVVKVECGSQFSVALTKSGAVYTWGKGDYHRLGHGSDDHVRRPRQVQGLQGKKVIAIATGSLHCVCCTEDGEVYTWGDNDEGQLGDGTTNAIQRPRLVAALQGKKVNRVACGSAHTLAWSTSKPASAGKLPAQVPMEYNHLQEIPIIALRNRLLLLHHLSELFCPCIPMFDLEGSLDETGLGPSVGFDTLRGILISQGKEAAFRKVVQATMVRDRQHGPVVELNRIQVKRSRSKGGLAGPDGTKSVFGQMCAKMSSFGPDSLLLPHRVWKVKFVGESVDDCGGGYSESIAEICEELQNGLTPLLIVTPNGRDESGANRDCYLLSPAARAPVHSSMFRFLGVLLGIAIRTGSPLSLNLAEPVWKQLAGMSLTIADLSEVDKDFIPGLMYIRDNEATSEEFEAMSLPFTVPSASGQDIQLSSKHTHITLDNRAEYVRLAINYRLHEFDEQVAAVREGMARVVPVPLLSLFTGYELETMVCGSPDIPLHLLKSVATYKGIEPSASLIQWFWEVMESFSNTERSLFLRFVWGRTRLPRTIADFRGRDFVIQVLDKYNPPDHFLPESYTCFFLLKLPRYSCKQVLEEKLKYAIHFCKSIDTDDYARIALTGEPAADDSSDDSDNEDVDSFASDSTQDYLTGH
UniProt Q9UGI0: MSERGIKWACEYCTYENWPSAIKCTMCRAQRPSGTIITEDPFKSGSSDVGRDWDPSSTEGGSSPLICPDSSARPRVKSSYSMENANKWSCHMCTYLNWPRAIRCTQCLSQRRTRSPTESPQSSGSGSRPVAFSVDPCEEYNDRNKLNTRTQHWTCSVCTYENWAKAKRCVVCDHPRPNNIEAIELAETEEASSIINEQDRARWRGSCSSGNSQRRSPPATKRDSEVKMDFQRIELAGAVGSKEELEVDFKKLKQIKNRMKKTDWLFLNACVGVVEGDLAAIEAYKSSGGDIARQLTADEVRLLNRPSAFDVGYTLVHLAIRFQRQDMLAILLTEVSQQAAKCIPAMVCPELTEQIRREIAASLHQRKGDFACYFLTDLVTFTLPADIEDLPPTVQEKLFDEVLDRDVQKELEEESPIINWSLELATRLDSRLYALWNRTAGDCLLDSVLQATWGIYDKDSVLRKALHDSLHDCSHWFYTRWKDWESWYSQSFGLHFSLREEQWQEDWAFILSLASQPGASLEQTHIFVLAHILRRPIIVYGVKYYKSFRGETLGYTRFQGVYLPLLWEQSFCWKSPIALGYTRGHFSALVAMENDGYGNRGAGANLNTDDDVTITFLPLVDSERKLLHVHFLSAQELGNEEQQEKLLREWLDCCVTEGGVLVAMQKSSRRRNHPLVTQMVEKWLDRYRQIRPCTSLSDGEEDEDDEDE

Target: endogenous HERC2 (human (endogenous in HEK293ET)) (UniProt O95714)
Test: co-IP; antibodies to endogenous HECT ligases (4 μg) coupled to Dynabeads protein G; lysates of HEK293ET/HEK293T cells expressing 3xFLAG TRABID constructs; 1 h at RT; four washes in Triton Lysis Buffer; anti-FLAG blot

With “3xFLAG_TRABID ΔOTU^TY>LV (from UniProt Q9UGI0) (domain or fragment)” the binding was “no binding”.

No constants are given. Whether binding was seen depends on the method and setting. Binding seen in cells or lysates may run through a third protein.
